Reference: article PMC5483465
No constants are given. Whether binding was seen depends on the method and setting. Binding can be weak; no strength is given.

Target: T1, La ribonucleoprotein autoantigen (UniProt P05455)
T1 sequence: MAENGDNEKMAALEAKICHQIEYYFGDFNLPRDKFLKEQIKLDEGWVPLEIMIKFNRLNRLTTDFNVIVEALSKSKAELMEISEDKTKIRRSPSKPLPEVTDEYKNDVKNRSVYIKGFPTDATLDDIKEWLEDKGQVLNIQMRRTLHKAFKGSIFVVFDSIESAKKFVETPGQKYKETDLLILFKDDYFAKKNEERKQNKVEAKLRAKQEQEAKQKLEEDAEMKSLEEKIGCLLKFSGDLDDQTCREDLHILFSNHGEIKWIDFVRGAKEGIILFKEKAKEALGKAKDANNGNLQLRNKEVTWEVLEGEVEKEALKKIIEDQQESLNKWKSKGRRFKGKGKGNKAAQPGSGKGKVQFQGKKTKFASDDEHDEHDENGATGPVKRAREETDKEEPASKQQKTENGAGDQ
Experiment: SPR; BIAcore 2000; ribonucleoproteins immobilised on a CM-4 chip by amine coupling (50-3,000 RU); Hb flowed at 20-30 ul/min, 25°C; regeneration 10 mM NaOH; 1:1 (Langmuir) Binding Model; both purified

Row | binding | Substance
1 | binds | ferric (Fe^3+) hemoglobin, murine (mouse) (complex)
2 | binds | ferrous (Fe^2+) hemoglobin, murine (mouse) (complex)
